Data as given in PubChem BioAssay AID686938 (Drosophila RNAi Screening Center, 2013)
The deposit covers about 23,000 reagents; below is an unselected part of those that have a named target and a result. In the full data, 75 (0.33%) were called active. 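Raw plate signals without normalisation; calls rest on plate z-scores that were not deposited; ratio present for only 364 wells.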 Names joined by + are all predicted targets of the reagent. Reagent sequences are not shown. Not given: the dose of the treatment.

Aim: 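Looking for CRAC channel components and the factors controlling them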 (primary screen)
Cell system: Drosophila S2R+ cells
Reagent: long dsRNA against Drosophila genes, about 0.25 µg dsRNA per well, roughly 10,000 cells
Time to read-out: 5 days of knock-down before the calcium assay
Treatment: thapsigargin (SERCA pump blocker) to empty calcium stores; entry signal taken 4 min after adding it
Read-out: 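Per-well fluo-4 fluorescence in two replicates, unnormalised, measured in resting cells and 4 min after store depletion by the SERCA blocker thapsigargin; ratio of the two present in few wells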
Direction: calcium entry signal: higher = stronger calcium signal after store depletion; resting calcium signal: higher = higher resting calcium signal
Active means: 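Called when the plate z-score of the entry-to-rest ratio, mean of duplicates, falls below −3; wells with low overall dye signal (Fmax z below −2) or more than five off-targets excluded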
Calls: active = strongly reduced calcium entry; inactive = no strong reduction

predicted target,dsRNA,"calcium entry signal, replicate 1 (fluorescence units)","calcium entry signal, replicate 2 (fluorescence units)","resting calcium signal, replicate 1 (fluorescence units)","resting calcium signal, replicate 2 (fluorescence units)",activity call
CG5550,DRSC06943,3.21e7,4.03e7,1.41e7,1.98e7,inactive
CG13587,DRSC04223,4.25e7,4.47e7,2.11e7,2.13e7,inactive
MESK2 + CG10494,DRSC04259,3.68e7,4.85e7,1.98e7,2.03e7,inactive
CG31327,DRSC13019,3.53e7,4.16e7,2.12e7,2.00e7,inactive
Cyp6u1,DRSC05015,3.27e7,,1.85e7,,inactive
CG1246,DRSC08275,3.80e7,3.93e7,1.93e7,1.73e7,inactive
Xpd,DRSC04666,3.57e7,,1.96e7,,inactive
lncRNA:CR41443,DRSC07733,3.85e7,3.80e7,1.72e7,1.83e7,inactive
CG12057,DRSC17797,2.31e7,7.10e7,1.24e7,2.74e7,inactive
Traf4,DRSC00445,2.04e7,1.92e7,1.08e7,9.02e6,inactive
Traf4,DRSC00794,4.55e7,,2.50e7,,inactive
stck,DRSC17070,3.81e7,3.31e7,1.86e7,1.68e7,inactive
CG10674,DRSC09775,2.65e7,4.34e7,1.38e7,1.97e7,inactive
CG5421,DRSC02858,4.22e7,2.66e7,1.88e7,1.30e7,inactive
CG3065,DRSC04333,3.49e7,,1.84e7,,inactive
comm,DRSC11336,3.72e7,5.13e7,1.54e7,1.84e7,inactive
D2hgdh,DRSC18577,3.22e7,3.81e7,1.47e7,1.84e7,inactive
sns,DRSC06423,2.96e7,3.95e7,1.60e7,1.63e7,inactive
sns,DRSC07687,3.11e7,4.33e7,1.58e7,1.69e7,inactive
sns,DRSC07688,3.77e7,3.07e7,1.89e7,1.58e7,inactive
sns,DRSC07689,3.41e7,2.96e7,1.60e7,1.45e7,inactive
sns,DRSC07691,3.14e7,3.02e7,1.49e7,1.46e7,inactive
sns,DRSC07692,3.08e7,3.49e7,1.37e7,1.50e7,inactive
CG31454,DRSC14365,4.08e7,3.34e7,2.22e7,1.68e7,inactive
CG31454,DRSC22801,3.30e7,4.47e7,1.63e7,1.98e7,inactive
Muc18B,DRSC20064,5.45e7,5.55e7,2.54e7,2.42e7,inactive
Muc18B,DRSC21644,3.71e7,3.73e7,1.91e7,1.75e7,inactive
CG31419,DRSC15771,3.36e7,6.01e7,1.76e7,7.40e7,inactive
ERp44,DRSC20215,4.68e7,4.70e7,2.11e7,2.05e7,inactive
CG15023,DRSC08477,2.90e7,5.28e7,1.32e7,2.12e7,inactive
Or59b,DRSC04632,3.55e7,3.76e7,1.86e7,1.79e7,inactive
Ets65A,DRSC09968,2.37e7,3.99e7,1.21e7,1.79e7,inactive
Ets65A,DRSC10738,1.28e7,3.51e7,1.03e7,2.53e7,inactive
Ets65A,DRSC11164,3.43e7,1.20e7,2.40e7,1.03e7,active
asRNA:CR43159 + yellow-k,DRSC10851,5.75e7,5.15e7,2.24e7,2.10e7,inactive

9 entries already listed, ordered by “resting calcium signal, replicate 1 (fluorescence units)”, low to high:
predicted target,dsRNA,"calcium entry signal, replicate 1 (fluorescence units)","calcium entry signal, replicate 2 (fluorescence units)","resting calcium signal, replicate 1 (fluorescence units)","resting calcium signal, replicate 2 (fluorescence units)",activity call
CG10674,DRSC09775,2.65e7,4.34e7,1.38e7,1.97e7,inactive
D2hgdh,DRSC18577,3.22e7,3.81e7,1.47e7,1.84e7,inactive
comm,DRSC11336,3.72e7,5.13e7,1.54e7,1.84e7,inactive
sns,DRSC07687,3.11e7,4.33e7,1.58e7,1.69e7,inactive
sns,DRSC06423,2.96e7,3.95e7,1.60e7,1.63e7,inactive
sns,DRSC07689,3.41e7,2.96e7,1.60e7,1.45e7,inactive
CG3065,DRSC04333,3.49e7,,1.84e7,,inactive
CG5421,DRSC02858,4.22e7,2.66e7,1.88e7,1.30e7,inactive
sns,DRSC07688,3.77e7,3.07e7,1.89e7,1.58e7,inactive

The listing continues:
predicted target,dsRNA,"calcium entry signal, replicate 1 (fluorescence units)","calcium entry signal, replicate 2 (fluorescence units)","resting calcium signal, replicate 1 (fluorescence units)","resting calcium signal, replicate 2 (fluorescence units)",activity call
t-Grip91,DRSC01506,3.04e7,3.80e7,1.66e7,1.77e7,inactive
CG9393,DRSC16486,3.13e7,4.30e7,1.38e7,1.77e7,inactive
CG14354,DRSC14817,4.37e7,4.12e7,2.13e7,1.79e7,inactive
Hesr,DRSC19965,3.34e7,2.78e7,1.74e7,1.50e7,inactive
CG1647,DRSC15134,3.76e7,4.58e7,1.67e7,1.92e7,inactive
CG31360,DRSC13255,4.37e7,3.06e7,2.15e7,1.53e7,inactive
Gnmt,DRSC15987,4.19e7,3.85e7,2.16e7,2.03e7,inactive
Fs(2)Ket,DRSC03328,8.96e6,,8.08e6,,inactive
CG15256,DRSC01491,2.86e7,4.10e7,1.57e7,1.92e7,inactive
CG15256,DRSC01940,4.70e7,3.22e7,2.03e7,1.51e7,inactive
Cyp4p2,DRSC07373,2.39e7,2.12e7,9.89e6,1.04e7,inactive
MtnD,DRSC22733,4.06e7,3.31e7,2.29e7,1.57e7,inactive
eIF1A,DRSC16937,1.53e7,1.55e7,1.12e7,9.84e6,inactive
CG14907 + Mettl4,DRSC15026,2.39e7,4.62e7,1.26e7,7.50e7,inactive
CG14907 + Mettl4,DRSC15027,2.45e7,4.31e7,1.29e7,4.85e7,inactive
fs(1)M3,DRSC18381,3.38e7,3.52e7,1.59e7,1.69e7,inactive
bard,DRSC14796,3.89e7,3.92e7,5.73e7,1.69e7,inactive
CG17290,DRSC06662,3.80e7,3.91e7,1.76e7,1.63e7,inactive
RunxA,DRSC20400,3.51e7,4.09e7,1.85e7,2.01e7,inactive
RunxA,DRSC20498,4.81e7,4.96e7,2.49e7,2.09e7,inactive
RunxA,DRSC20524,5.60e7,5.32e7,2.67e7,2.34e7,inactive
RunxA,DRSC21915,3.32e7,4.89e7,1.62e7,2.75e7,inactive
Ucp4A,DRSC19996,3.28e7,3.16e7,1.65e7,1.66e7,inactive
